According to the supplement of paper PMC12819154, “High-throughput peptide-centric local stability assay extends protein–ligand identification to membrane proteins, tissues and bacteria” (Nature Structural & Molecular Biology, 2025):
The other results are listed elsewhere or left out. Most values lie at the level of the controls, where differences are scatter.

By UniProt entry, the sequences of proteins in these tests, tags left out. Where a name states a change or a piece, a line headed by the entry shows the natural chain unless it says otherwise.
UniProt P49327, whole entry, looked up: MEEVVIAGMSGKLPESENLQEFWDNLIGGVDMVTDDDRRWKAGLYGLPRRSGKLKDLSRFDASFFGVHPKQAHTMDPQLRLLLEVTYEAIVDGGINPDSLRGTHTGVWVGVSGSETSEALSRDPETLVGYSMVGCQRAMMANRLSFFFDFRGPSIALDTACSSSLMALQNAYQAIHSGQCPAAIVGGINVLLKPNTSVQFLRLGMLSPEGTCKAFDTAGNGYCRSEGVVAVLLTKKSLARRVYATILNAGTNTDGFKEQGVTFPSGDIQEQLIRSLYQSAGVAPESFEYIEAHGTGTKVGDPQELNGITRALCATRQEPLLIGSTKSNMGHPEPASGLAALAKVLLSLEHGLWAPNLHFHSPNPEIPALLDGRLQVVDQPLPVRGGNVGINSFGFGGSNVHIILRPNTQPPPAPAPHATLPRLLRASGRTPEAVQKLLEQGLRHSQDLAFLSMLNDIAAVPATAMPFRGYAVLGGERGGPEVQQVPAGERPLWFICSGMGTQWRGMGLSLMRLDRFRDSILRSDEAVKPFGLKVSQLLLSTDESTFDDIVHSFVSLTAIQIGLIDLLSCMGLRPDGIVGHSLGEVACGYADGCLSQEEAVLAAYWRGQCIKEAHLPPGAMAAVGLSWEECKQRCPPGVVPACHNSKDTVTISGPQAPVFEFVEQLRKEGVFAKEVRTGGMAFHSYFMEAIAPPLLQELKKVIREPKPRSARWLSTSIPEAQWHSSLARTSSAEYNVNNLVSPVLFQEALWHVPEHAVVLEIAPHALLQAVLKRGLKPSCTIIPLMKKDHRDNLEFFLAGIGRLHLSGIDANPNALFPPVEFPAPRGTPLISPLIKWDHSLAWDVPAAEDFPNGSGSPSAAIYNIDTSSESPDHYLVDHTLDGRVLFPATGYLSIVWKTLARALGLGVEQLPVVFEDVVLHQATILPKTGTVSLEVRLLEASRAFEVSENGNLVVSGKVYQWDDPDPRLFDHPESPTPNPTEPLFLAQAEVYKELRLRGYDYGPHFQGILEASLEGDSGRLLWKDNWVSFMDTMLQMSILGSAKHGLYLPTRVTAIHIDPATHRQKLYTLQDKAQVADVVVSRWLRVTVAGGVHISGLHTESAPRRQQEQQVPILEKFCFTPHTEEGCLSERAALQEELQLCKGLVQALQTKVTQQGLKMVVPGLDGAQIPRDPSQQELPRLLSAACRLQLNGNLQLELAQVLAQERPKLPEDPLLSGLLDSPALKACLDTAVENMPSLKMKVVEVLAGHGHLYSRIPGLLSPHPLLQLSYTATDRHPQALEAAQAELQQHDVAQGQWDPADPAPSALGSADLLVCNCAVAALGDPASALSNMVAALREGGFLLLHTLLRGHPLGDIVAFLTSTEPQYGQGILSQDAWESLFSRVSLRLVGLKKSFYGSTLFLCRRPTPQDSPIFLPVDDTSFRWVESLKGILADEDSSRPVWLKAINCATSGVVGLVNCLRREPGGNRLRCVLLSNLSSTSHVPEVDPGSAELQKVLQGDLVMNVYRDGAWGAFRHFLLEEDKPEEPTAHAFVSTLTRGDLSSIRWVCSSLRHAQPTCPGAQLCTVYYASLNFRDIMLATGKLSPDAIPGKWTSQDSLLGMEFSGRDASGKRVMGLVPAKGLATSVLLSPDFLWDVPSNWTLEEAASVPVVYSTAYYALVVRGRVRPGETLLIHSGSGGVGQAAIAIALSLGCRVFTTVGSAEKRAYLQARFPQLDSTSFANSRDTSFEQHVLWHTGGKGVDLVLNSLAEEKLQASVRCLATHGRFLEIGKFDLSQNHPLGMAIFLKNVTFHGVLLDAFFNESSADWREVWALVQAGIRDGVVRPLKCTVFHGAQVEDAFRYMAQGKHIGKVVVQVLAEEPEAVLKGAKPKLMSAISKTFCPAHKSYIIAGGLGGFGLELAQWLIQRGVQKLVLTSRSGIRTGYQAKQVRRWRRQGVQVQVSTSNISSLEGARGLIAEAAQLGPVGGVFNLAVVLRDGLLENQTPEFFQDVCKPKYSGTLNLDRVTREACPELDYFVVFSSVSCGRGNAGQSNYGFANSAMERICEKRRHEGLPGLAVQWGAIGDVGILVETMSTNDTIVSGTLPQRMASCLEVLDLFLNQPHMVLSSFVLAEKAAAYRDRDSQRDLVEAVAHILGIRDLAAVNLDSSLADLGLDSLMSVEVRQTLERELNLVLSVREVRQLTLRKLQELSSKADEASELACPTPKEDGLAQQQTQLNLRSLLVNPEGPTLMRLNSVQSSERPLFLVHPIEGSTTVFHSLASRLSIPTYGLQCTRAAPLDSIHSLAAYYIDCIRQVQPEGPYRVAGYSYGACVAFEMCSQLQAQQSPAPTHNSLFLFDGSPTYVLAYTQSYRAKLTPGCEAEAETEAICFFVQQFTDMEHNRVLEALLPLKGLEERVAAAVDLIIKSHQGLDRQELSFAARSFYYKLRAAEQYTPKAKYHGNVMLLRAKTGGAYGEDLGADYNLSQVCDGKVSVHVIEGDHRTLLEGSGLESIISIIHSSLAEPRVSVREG
UniProt P54727: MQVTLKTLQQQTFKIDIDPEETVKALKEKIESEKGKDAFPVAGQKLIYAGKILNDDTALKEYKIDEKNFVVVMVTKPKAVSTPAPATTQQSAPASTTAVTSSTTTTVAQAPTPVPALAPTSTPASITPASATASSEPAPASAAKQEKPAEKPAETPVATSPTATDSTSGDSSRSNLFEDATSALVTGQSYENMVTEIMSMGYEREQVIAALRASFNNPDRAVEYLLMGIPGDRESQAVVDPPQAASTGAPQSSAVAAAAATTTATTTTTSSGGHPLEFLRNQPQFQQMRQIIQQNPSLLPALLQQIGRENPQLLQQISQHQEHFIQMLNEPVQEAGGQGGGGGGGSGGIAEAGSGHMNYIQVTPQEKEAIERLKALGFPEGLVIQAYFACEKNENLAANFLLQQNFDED
UniProt P49458: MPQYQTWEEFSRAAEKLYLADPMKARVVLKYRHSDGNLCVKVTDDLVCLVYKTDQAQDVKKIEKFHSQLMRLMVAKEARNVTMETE
UniProt P50995, whole entry: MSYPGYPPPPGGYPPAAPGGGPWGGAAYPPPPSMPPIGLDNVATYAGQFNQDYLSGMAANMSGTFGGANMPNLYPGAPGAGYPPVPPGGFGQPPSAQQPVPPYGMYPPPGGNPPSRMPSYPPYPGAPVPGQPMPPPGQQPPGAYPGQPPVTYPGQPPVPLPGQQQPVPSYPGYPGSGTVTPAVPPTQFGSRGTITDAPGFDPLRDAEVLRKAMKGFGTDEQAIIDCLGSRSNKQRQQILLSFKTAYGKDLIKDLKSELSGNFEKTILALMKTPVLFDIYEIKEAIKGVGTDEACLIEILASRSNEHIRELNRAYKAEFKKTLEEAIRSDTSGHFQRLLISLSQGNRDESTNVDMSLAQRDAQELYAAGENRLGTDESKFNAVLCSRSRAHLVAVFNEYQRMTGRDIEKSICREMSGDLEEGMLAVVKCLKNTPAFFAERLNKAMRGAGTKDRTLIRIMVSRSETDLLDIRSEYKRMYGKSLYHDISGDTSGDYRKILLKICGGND
UniProt P50402: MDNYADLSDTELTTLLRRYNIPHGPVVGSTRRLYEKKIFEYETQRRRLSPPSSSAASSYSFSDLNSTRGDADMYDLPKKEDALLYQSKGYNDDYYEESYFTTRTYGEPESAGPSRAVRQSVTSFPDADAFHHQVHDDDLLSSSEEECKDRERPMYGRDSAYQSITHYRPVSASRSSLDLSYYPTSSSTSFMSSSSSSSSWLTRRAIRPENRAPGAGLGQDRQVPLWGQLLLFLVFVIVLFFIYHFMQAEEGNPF
UniProt P54687: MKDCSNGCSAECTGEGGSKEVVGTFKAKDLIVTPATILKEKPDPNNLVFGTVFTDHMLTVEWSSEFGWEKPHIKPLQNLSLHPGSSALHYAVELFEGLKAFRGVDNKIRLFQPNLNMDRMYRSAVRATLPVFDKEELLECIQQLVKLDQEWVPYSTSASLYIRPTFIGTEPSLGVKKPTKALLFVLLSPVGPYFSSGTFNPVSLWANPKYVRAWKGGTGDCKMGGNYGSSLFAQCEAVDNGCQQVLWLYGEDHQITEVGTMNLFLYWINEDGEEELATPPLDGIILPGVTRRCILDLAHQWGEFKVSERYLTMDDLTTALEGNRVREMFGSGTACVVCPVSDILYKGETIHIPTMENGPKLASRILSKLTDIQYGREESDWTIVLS
UniProt P47985: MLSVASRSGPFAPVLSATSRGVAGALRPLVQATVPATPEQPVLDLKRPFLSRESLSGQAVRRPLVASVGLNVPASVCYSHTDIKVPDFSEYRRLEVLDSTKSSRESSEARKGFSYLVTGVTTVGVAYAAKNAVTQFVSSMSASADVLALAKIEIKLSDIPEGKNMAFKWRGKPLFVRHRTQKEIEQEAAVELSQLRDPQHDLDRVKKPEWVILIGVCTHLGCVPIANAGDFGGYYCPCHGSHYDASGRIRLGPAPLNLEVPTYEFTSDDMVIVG
UniProt P49023, whole entry: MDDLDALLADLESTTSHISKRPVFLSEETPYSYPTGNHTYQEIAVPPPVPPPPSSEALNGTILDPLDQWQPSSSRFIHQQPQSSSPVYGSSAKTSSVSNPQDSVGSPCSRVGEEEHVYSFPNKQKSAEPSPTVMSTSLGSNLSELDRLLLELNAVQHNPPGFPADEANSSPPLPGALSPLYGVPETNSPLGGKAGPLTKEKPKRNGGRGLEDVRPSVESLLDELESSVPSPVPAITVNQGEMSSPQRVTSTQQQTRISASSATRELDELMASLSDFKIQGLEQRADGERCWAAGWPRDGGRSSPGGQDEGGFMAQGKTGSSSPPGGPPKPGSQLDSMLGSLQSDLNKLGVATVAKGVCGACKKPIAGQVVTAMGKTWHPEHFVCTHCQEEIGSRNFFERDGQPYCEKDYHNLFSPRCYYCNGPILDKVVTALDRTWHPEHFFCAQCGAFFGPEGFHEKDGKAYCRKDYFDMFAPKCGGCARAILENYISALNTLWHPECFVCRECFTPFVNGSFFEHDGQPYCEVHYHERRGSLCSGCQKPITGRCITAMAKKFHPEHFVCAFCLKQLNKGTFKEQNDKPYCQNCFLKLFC
UniProt P50990: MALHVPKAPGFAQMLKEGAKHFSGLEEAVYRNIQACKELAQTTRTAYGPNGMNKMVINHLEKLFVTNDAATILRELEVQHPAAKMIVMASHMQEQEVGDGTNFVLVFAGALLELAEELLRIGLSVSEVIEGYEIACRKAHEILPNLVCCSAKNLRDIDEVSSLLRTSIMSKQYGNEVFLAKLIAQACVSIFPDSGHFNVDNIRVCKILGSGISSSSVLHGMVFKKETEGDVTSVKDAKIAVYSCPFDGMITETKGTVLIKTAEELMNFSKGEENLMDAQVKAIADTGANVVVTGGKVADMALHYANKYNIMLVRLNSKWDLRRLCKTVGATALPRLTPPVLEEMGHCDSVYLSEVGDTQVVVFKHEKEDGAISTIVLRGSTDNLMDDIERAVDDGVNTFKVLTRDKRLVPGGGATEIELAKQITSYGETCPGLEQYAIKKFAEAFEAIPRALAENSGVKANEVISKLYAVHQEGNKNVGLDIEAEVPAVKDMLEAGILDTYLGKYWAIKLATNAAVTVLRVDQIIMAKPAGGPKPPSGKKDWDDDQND
UniProt P52597: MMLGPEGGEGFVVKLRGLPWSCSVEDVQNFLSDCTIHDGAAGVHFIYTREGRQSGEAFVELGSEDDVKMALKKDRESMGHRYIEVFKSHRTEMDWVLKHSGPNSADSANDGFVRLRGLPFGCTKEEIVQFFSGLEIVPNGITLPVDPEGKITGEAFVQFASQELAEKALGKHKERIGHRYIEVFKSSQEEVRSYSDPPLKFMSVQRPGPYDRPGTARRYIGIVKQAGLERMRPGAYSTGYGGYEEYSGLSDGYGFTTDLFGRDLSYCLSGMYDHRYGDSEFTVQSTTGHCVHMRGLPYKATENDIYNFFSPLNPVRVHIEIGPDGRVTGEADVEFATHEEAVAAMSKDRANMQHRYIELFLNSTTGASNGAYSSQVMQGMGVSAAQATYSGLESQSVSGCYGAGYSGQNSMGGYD
UniProt P51153: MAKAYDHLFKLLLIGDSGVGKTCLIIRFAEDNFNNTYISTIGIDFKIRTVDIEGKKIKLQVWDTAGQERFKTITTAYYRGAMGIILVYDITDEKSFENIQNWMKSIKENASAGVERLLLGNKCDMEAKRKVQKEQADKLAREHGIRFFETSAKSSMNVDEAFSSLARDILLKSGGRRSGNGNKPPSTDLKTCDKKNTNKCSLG
UniProt P49441: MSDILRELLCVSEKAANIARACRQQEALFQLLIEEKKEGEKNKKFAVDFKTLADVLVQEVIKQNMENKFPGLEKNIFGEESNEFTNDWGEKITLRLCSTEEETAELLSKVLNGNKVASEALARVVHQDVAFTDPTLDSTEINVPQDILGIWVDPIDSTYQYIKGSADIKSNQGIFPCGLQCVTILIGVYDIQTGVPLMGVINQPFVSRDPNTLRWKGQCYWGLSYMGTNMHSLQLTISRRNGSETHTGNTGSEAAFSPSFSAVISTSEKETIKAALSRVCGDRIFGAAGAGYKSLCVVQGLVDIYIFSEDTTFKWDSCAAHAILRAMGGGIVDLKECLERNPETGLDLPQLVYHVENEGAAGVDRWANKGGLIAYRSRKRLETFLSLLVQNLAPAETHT

The targets below were run with CN[C@@H]1C[C@H]2O[C@@](C)([C@@H]1OC)n1c3ccccc3c3c4c(c5c6ccccc6n2c5c31)C(=O)NC4 [staurosporine] (assay: log2 fold change of tryptic peptide abundance, ligand vs vehicle (limited proteolysis) (log2 ratio); higher = more trypsin-susceptible (destabilized)). Conditions: ligand concentration: 20 uM; sample: K562 cleared lysate; digestion: 4 min, 22 C (HT-PELSA RT4min, Orbitrap Astral).

| Target | log2 fold change |
| --- | --- |
| FASN (peptide sequence: DPETLVGYSMVGCQR, peptide start residue: 123) (UniProt P49327) | -0.6 |
| ACADVL (peptide sequence: IFEGTNDILR, peptide start residue: 460) (UniProt P49748) | 0.605 |
| CNN1 (peptide sequence: GASQAGMTAPGTKR, peptide start residue: 213) (UniProt P51911) | 0.316 |
| RAD23B (peptide sequence: PAEKPAETPVATSPTATDSTSGDSSR, peptide start residue: 148) (UniProt P54727) | -0.163 |
| METAP2 (peptide sequence: NFDVGHVPIRLPR, peptide start residue: 386) (UniProt P50579) | 0.162 |
| PREP (peptide sequence: AFVEAQNK, peptide start residue: 41) (UniProt P48147) | -0.158 |
| TERF1 (peptide sequence: QAWLWEEDKNLR, peptide start residue: 381) (UniProt P54274) | -0.123 |
| GMPS (peptide sequence: GLQKEEVVLLTHGDSVDKVADGFK, peptide start residue: 142) (UniProt P49915) | 0.228 |
| EIF2B2 (peptide sequence: IESFVETLKR, peptide start residue: 15) (UniProt P49770) | 0.351 |
| RAP1GDS1 (peptide sequence: LMDLLDR, peptide start residue: 362) (UniProt P52306) | 0.342 |
| KPNA1 (peptide sequence: REEEGLQLR, peptide start residue: 28) (UniProt P52294) | 0.474 |
| SRP9 (peptide sequence: FHSQLMR, peptide start residue: 65) (UniProt P49458) | 0.148 |
| ANXA11 (peptide sequence: NTPAFFAER, peptide start residue: 431) (UniProt P50995) | 0.217 |
| NEK4 (peptide sequence: VAEEAEEIHFK, peptide start residue: 752) (UniProt P51957) | 0.341 |
| BLVRA (peptide sequence: SPLSWIEEK, peptide start residue: 211) (UniProt P53004) | 0.416 |
| EMD (peptide sequence: GDADMYDLPKKEDALLYQSK, peptide start residue: 69) (UniProt P50402) | -0.254 |
| STAT2 (peptide sequence: CSQDPESLLLQHNLRK, peptide start residue: 74) (UniProt P52630) | 0.518 |
| BCAT1 (peptide sequence: CILDLAHQWGEFK, peptide start residue: 293) (UniProt P54687) | -0.4 |
| UQCRFS1 (peptide sequence: EIEQEAAVELSQLR, peptide start residue: 183) (UniProt P47985) | 0.138 |
| PXN (peptide sequence: ELDELMASLSDFK, peptide start residue: 265) (UniProt P49023) | -0.456 |
| CCT8 (peptide sequence: MVINHLEKLFVTNDAATILR, peptide start residue: 55) (UniProt P50990) | 0.954 |
| HNRNPF (peptide sequence: DLSYCLSGMYDHR, peptide start residue: 263) (UniProt P52597) | -0.187 |
| NRIP1 (peptide sequence: LQTVALSQQIR, peptide start residue: 144) (UniProt P48552) | 0.208 |
| PTDSS1 (peptide sequence: SKVTNGVGKK, peptide start residue: 464) (UniProt P48651) | -0.715 |
| RAB13 (peptide sequence: SFENIQNWMK, peptide start residue: 95) (UniProt P51153) | 0.646 |
| PGD (peptide sequence: CLSSLKDER, peptide start residue: 289) (UniProt P52209) | 0.492 |
| UniProt P46781 (peptide sequence: KQVVNIPSFIVR, peptide start residue: 139) | 0.243 |
| INPP1 (peptide sequence: IFGAAGAGYK, peptide start residue: 284) (UniProt P49441) | -0.217 |

Individual results from above.
Value of TERF1 (peptide sequence: QAWLWEEDKNLR, peptide start residue: 381) (UniProt P54274) under log2 fold change: -0.123
Value of RAB13 (peptide sequence: SFENIQNWMK, peptide start residue: 95) (UniProt P51153) under log2 fold change: 0.646
